These are yes or no findings as the source states them, for the method shown. Binding seen in cells or lysates may run through a third protein. These calls come from enrichment with a bait or labelling near it, and not all partners need be listed.
Target: GFP-tagged p55 (GFP-p55), bait (Drosophila) (UniProt Q24572)
Test: affinity purification with mass spectrometry; GFP-trap resin capture of GFP-p55 from nuclear extract of Drosophila S2 Schneider cells; control pull-down with GFP only; label-free quantitative MS

Protein sequences, listed by entry. Tags and fused reporters are not part of them.
UniProt Q24572: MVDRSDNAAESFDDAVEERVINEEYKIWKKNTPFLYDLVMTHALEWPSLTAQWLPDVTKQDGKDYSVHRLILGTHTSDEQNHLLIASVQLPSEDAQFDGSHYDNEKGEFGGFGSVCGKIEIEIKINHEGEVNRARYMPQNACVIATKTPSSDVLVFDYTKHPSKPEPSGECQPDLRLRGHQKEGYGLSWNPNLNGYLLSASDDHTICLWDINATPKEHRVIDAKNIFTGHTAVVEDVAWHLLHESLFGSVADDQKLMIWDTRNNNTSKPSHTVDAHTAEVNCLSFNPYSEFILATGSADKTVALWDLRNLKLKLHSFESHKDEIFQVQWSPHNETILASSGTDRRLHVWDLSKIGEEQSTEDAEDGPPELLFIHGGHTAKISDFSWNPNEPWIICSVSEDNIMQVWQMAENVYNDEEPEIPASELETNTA
UniProt Q94517: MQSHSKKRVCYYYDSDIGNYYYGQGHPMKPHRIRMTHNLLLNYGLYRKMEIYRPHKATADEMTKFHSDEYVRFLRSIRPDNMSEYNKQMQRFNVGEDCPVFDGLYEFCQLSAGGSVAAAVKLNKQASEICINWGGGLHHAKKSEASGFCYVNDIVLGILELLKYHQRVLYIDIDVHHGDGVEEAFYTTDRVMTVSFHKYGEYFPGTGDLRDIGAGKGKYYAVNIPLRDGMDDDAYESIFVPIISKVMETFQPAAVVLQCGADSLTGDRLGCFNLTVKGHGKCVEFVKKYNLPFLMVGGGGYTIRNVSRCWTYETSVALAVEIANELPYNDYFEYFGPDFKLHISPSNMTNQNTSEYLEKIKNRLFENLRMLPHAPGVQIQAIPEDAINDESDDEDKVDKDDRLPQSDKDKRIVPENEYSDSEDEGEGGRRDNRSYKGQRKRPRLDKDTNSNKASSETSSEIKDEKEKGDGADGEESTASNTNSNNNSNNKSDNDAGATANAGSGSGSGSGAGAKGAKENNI
UniProt O97159: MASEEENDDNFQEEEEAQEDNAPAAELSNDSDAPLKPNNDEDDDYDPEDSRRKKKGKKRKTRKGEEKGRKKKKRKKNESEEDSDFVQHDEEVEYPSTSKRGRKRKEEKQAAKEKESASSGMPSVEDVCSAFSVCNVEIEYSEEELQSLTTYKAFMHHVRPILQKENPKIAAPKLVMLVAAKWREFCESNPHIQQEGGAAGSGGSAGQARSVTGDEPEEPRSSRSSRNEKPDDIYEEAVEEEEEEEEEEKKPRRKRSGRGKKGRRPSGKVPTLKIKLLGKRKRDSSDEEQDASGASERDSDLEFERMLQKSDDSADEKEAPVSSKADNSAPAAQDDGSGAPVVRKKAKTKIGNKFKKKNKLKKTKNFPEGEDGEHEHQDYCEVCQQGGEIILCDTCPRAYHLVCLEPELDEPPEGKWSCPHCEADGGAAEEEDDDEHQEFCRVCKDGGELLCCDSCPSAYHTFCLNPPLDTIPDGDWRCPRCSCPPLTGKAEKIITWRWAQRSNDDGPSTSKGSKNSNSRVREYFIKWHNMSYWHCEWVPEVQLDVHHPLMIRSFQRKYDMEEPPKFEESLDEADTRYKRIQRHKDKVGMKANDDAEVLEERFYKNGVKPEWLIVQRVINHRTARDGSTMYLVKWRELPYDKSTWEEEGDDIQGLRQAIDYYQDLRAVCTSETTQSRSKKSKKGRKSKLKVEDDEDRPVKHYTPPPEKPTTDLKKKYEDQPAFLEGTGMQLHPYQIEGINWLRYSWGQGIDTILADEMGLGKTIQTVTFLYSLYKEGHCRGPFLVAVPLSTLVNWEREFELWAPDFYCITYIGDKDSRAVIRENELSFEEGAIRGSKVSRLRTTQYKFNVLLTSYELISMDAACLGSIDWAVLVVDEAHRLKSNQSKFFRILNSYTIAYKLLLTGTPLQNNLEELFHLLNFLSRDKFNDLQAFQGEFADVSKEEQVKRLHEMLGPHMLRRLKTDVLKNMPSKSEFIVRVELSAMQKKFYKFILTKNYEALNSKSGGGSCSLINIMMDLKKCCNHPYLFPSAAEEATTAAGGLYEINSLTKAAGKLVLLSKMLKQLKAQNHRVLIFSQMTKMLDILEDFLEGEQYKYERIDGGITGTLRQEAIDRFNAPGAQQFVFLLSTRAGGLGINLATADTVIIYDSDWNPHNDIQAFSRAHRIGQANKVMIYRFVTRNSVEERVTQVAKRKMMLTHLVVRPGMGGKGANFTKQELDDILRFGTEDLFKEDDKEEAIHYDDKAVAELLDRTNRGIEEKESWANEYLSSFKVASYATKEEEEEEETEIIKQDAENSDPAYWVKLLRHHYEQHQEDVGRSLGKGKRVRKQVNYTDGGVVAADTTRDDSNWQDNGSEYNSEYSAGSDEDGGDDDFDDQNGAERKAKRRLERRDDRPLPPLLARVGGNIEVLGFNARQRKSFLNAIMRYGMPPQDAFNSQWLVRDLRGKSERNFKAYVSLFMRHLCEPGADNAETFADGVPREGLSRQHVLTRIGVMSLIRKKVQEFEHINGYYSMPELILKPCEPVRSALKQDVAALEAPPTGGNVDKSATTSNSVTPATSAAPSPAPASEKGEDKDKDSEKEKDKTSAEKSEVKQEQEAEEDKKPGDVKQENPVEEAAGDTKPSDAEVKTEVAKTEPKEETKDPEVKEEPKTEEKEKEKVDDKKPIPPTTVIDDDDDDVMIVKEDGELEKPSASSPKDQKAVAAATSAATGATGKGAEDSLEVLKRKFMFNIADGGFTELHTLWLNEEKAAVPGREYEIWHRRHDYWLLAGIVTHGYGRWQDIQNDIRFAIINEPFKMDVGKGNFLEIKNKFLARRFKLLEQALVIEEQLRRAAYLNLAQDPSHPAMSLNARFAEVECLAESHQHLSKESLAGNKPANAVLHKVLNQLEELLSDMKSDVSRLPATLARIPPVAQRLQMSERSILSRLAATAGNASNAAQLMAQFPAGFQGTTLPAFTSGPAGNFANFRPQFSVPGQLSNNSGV

| binding | Substance |
| --- | --- |
| binds | Rpd3 (endogenous) (from UniProt Q94517 1-521) (enzyme) |
| binds | CHD4 (Drosophila Mi-2, endogenous) (from UniProt O97159 1-1982) (enzyme) |

From paper PMC4942838
